No constants are given. Whether binding was seen depends on the method and setting. Sequences can lack the tags named with a protein.
Biological target: T1, His-tagged JIL-1 kinase control fusion protein (amino-terminal fragment, first 260 amino acid residues) (UniProt Q9V3I5)
T1 sequence: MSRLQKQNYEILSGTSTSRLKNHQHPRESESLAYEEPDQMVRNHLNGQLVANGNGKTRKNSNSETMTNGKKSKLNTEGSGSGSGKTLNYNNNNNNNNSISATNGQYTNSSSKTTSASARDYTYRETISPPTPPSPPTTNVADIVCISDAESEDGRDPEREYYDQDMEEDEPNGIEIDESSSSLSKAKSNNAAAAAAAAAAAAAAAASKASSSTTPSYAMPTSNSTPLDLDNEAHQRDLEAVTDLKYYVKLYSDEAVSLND
Test: pull-down; about 10 ug His-Skeletor or His-JIL-1 coupled to Ni-NTA beads, incubated with 10 ug GST-Digitor in 1X PBS pH 7.4, 4 hr, 4°C; 5 washes; immunoblot with anti-GST mAb 8C7; both purified

B1: Digitor-GST fusion protein without the four zinc-finger motifs (amino acid residues 144 to 376) (domain or fragment, UniProt Q9VZU1 144-376)
chain: LVHHESDKVPIPSLATWKRLNPQPIPVSADSLTAHSLKTGSDLHPSEEYINNLPSNLAGVTELYAEIPNPEANMPSTLELDTNLPAAEEHILCFLPIMDVSYALEMSSQKLDMETQTEEDDLNEIRNEVLAPLLRDIETQTPDTRGDIGTMTDDFPEEQEPVAVGSHFHAYSETEPMFDLQTSAHMYTQTCDDLFEELGLSHIQTQTHWPDGLYNTQHTQTCDEIMDELFPDN
B1 was tested, and the binding was “no binding (tested: 10 μg of GST-Digitor)”.

Reference: publication PMC5115829, “Digitor/dASCIZ Has Multiple Roles in Drosophila Development” (PLoS ONE, 2016)
